Experimental data published in PubChem BioAssay AID1910 (Broad Institute, 2009).
About 950 (0.32%) of roughly 300,000 compounds were called active. Inconclusive means that the source gave no clear call. Such entries were picked first, then a sample of the others.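 Rule for the calls: active = mean activation of at least 10% of the iron chelator positive control signal, with at least half of replicates also reaching 10%; inconclusive = mean and replicate majority disagree about reaching 10%; inactive = mean and most replicates under 10%.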

Experiment: HIF pathway transcriptional activators, primary screen, cell-based, U2OS HRE-luciferase, luminescence (AID 1910)
Details: U2OS HRE-luciferase reporter, hits give high values, screened at 7.5 µM (by protocol), normalized: DMSO 0%, desferrioxamine 100%

| Compound | activation |
| --- | --- |
| CCOC(=O)c1c(-c2ccccc2)oc2ccc(OCC(O)CN(C)C)cc12 (stereo unspecified) | inconclusive: 6.44% |
| Cc1ccc(C(=O)NC2CC3CCCC(C2)N3Cc2ccccc2)cc1 (stereo unspecified) | inconclusive: 6.17% |
| CC(=O)N1CCc2cc(S(=O)(=O)NCCC(=O)Nc3cccc(C)c3)ccc21 | inactive: -0.32% |
| CCOC(=O)N1CCN(S(=O)(=O)c2ccc(C(=O)NNc3nc4c(C)cc(C)cc4s3)cc2)CC1 | inconclusive: 8.98% |
| C=CCOc1c(Cl)cc(CNc2ccc(C)c(Cl)c2)cc1OC | inactive: 2.28% |
| Cc1nc(NCCc2ccccc2)c(C#N)c(C)c1[N+](=O)[O-] | inconclusive: 4.97% |
| CCC(Cc1ccccc1)n1c(=S)[nH]c2ccccc2c1=O (stereo unspecified) | inconclusive: 5.71% |
| CCCCCN(C(=O)CCC(=O)OCC(=O)N(CC)c1ccccc1)c1c(N)n(CCCC)c(=O)[nH]c1=O | inactive: -0.00832% |
| Cc1ccc(-c2nc(CS(=O)(=O)CC(=O)NC3CCC(C)CC3)c(C)o2)cc1 (stereo unspecified) | inconclusive: 8.16% |
| COc1ccc(CSCC(=O)Nc2ccc(S(=O)(=O)N3CCCCCC3)cc2)cc1 | inconclusive: 5.46% |
| O=C(O)c1ccc(N2C(=O)CSC2=S)cc1 | inconclusive: 4.84% |
| O=C(Cc1ccc(S(=O)(=O)N2CCOCC2)s1)Nc1ccc(S(=O)(=O)N2CCCCC2)cc1 | inconclusive: 5.43% |
| Cc1ccc2nc(SCC(=O)N3CCCCC3)nc(=O)n2c1 | inconclusive: 5.22% |
| Nc1ncnc2c1ncn2CCN1CCOCC1 | inconclusive: 6.9% |
| CN(C)c1ccc(Nc2nc(-c3cccnc3)cs2)cc1 | inactive: 1.23% |
| O=[N+]([O-])c1ccc(N/N=C/c2ccccc2O)cc1 | inconclusive: 8.59% |
| O=C(CCc1nnc(-c2ccccc2)o1)c1ccc(Cl)cc1 | inconclusive: 7.28% |
| CN1CCN(S(=O)(=O)c2cccc(C(=O)Nc3ccccc3N3CCCC3)c2)CC1 | inactive: 0.183% |
| CCOC(=O)c1sc(Nc2cccc(Cl)c2)nc1C | inconclusive: 9.38% |
| O=C(CCNc1cccc(F)c1)c1cc2ccccc2o1 | inactive: 2.86% |
| Cc1ccc(N2CC(=O)Nc3c(sc4nc(C)cc(C)c34)C2=O)cc1 | active: 26.2% |
| CC(=O)Nc1nc2ccccc2n1CCOc1ccccc1Cl | inconclusive: 8.64% |
| O=[N+]([O-])c1cc(Cl)cc(/C=N\Nc2ccccn2)c1O | active: 20.8% |

| Compound | activation |
| --- | --- |
| O=C(N/N=C\c1cc(Cl)ccc1O)c1ccc(S(=O)(=O)N2CCCCC2)cc1 | active: 44.5% |
| CC(=O)Cn1c(=O)c2c(nc3n2CCCN3Cc2ccccc2)n(C)c1=O | active: 35.1% |
| CC(C)CN(C)C(=O)CCc1nnc(Cc2cccc(C(F)(F)F)c2)o1 | inactive: 4.08% |
| Cc1ccc(NC(=O)CC2NCCNC2=O)cc1Cl (stereo unspecified) | inactive: 0.766% |
| COc1ccc(N2CCN(CCNC(=O)c3c(C)cc(=O)oc3C)CC2)cc1 | inactive: -0.0411% |
| NC(=S)NNC(=O)c1cc(C(F)(F)F)cc(C(F)(F)F)c1 | inconclusive: 5.88% |
| COc1ccccc1C1=NOC(C(=O)N2CCN(C(=O)c3ccco3)CC2)C1 (stereo unspecified) | inactive: 0.495% |
| CC1CCN(Cc2c(C(=O)N/N=C/c3cc(Cl)ccc3O)nnn2-c2nonc2N)CC1 | active: 40% |
| Cc1cc2n(n1)C(c1ccc(N(C)C)cc1)Nc1ccccc1-2 (stereo unspecified) | inactive: 3.09% |
| NS(=O)(=O)c1ccc(CNC(=O)c2csc3c2CCCC3)cc1 | inconclusive: 8.14% |
| Cc1ccc2nc(SCC(=O)c3ccccc3)nc(=O)n2c1 | inconclusive: 7.13% |
| CCOc1ccc(C(=O)NC(=S)Nc2cccc(NC(=O)c3ccco3)c2)cc1[N+](=O)[O-] | inconclusive: 5.01% |
| CCOC(=O)c1c(O)cc(C)cc1Nc1ccccc1 | inactive: -0.784% |
| CCC1CCc2sc(C(=O)NCc3ccccn3)cc2C1 (stereo unspecified) | active: 21.9% |
| COc1cccc(CNC(=O)CN2C(=O)CSc3ccc(S(=O)(=O)N4CCOCC4)cc32)c1 | inactive: 0.189% |
| O=[N+]([O-])c1ccc(N=Cc2ccc(Br)c([N+](=O)[O-])c2)cc1 | inconclusive: 6.65% |
| O=C(N/N=C/c1c(O)ccc2ccccc12)c1ccc(CO)nc1 | active: 33.7% |
| COc1ccc(NC(=S)Nc2ccccn2)c(OC)c1 | inconclusive: 3.41% |
| C#Cc1cccc(NC(=O)c2ccc(Cl)cc2Cl)c1 | inactive: 4.98% |
| CC(=O)Nc1ccc(NC(=O)CCC(=O)OCC(=O)c2ccc(F)cc2)cc1 | inconclusive: 7.66% |
| CC(C)=CCc1c(O)cc(O)c2c(=O)c(O[C@@H]3O[C@@H](C)[C@H](O)[C@@H](O)[C@H]3O)c(-c3ccc(O)cc3)oc12 | inactive: -0.375% |
| CCOC(=O)C1=C(c2ccccc2)NC(=O)NC1c1ccc(O)c(Cl)c1 (stereo unspecified) | inconclusive: 4.39% |
| CCCCC(=O)Nc1cccc(NC(=O)c2cccc(Br)c2)c1 | inactive: -0.161% |

| Compound | activation |
| --- | --- |
| COc1ccc(NC(=O)CSC(C)c2nc3ccccc3c(=O)[nH]2)cc1 (stereo unspecified) | inactive: -0.197% |
| O=C(CCc1nnc2n(Cc3ccc(Cl)cc3)c(=O)c3ccccc3n12)N1CCN(c2ccccn2)CC1 | inactive: -0.394% |
| Fc1ccc2nc(Nc3ccccc3)sc2c1 | inactive: 4.05% |
| CC1(C)CC(NC(=O)CCC2CCCC2)CC(C)(C)N1 | inconclusive: 5.21% |
| O=C(COc1ccc(-c2ccccc2)cc1)N/N=C/c1ccccc1Br | inactive: -0.474% |
| Cn1nnc2cc(C(=O)N3CCC(c4ccccc4)C3)ccc21 (stereo unspecified) | inconclusive: 5.8% |
| O=C(c1ccc(Cl)cc1Cl)N1CCN(c2ccc(N3CCOCC3)nn2)CC1 | inconclusive: 5.04% |
| CN1CCC2(CC1)N=C(c1ccc(F)cc1)C(=S)N2C(=O)c1ccc(C(C)(C)C)cc1 | active: 191% |
| O=c1cnnc(Nc2ccc(Nc3ccccc3)cc2)[nH]1 | inactive: 0.0548% |
| CCOc1ccccc1NS(=O)(=O)c1ccc(-c2cnc(C3CC3)o2)cc1 | inactive: -0.0968% |
| COc1ccc(CCNc2nncc(=O)[nH]2)cc1OC | inconclusive: 7.06% |
| COc1ccccc1-c1cnn2c(NC3CCCC3)cc(C)nc12 | inactive: 2.73% |
| Cc1ccc(C)c2[nH]c(=O)c(CN(Cc3ccco3)C(=S)NCC3CCCO3)cc12 (stereo unspecified) | inactive: -1.71% |
| O=C(Nc1ncc2c(n1)CC(c1ccco1)CC2=O)c1ccccc1 (stereo unspecified) | inconclusive: 5.45% |
| CCOc1ccc(/C=C/C(=O)c2ccccc2)cc1OC | inconclusive: 8.95% |
| Cc1c(/C=N/NC(N)=O)c2ccccn2c1C(=O)c1ccncc1 | inconclusive: 8.79% |
| Cc1ccc(CS(=O)Cc2ccc(C(=O)N3CCN(c4ccc(F)cc4)CC3)o2)cc1 (stereo unspecified) | inactive: -0.167% |
| O=C(N/N=C/c1cc(Cl)cc(Cl)c1O)c1ccncc1 | active: 28.6% |
| Cc1ccc(-n2cc(CN3CCC(CO)(Cc4ccccc4)CC3)cn2)cc1 | inconclusive: 7.34% |
| COc1ccc(CC(=O)Oc2ccccc2Cl)cc1S(=O)(=O)N1CCOCC1 | inactive: -0.0458% |
| CCOC(=O)CSc1nc2cc(C)cc(C)c2cc1C#N | inactive: 1.72% |
| CCCC1CCC(=C(C#N)C(N)=O)CC1 (stereo unspecified) | inconclusive: 5.43% |
| O=C(N/N=C/c1cc2cc3c(cc2nc1Cl)OCCO3)c1ccccc1O | inactive: 1.01% |

| Compound | activation |
| --- | --- |
| Cc1cc(C)n(-c2ccc3cccc(NS(C)(=O)=O)c3n2)n1 | active: 52.2% |
| Cc1c(Cl)c([N+](=O)[O-])nn1CC(=O)NC12CC3CC(CC(C3)C1)C2 | inconclusive: 6.23% |
| COc1ccc(C(=O)Nc2ccc(C(=O)NCCc3ccc(OC)c(OC)c3)cc2)cc1 | inconclusive: 5.97% |
| O=c1cc(CO)[nH]cc1OCc1ccccc1 | inconclusive: 7.89% |
| O=C(O)c1ccc(NC(=O)C2C3CCC(C3)C2C(=O)O)cc1 (stereo unspecified) | inactive: 0.134% |
| CCOC(=O)c1c(C)c(C(=O)Nc2ccc(N(C)C)cc2)c(C)n1CC | inactive: 4.76% |
| Cc1ccc(C2(O)CN(c3ccccc3C)C3=[N+]2CCS3)cc1 (stereo unspecified) | active: 12.5% |
| Cc1cc(OCC(=O)Nc2ccc3c(c2)OCCO3)cc(C)c1Cl | inconclusive: 5.22% |
| CC(/C=C1\SC(=S)N(NS(=O)(=O)c2ccccc2)C1=O)=C\c1ccccc1 | inactive: -0.566% |
| C=CCc1c(C)nc2c(-c3ccccc3)cnn2c1N1CCOCC1 | inconclusive: 8.37% |
| CCN=C1SC(CC(=O)NC(C)C)C(=O)N1CC (stereo unspecified) | inconclusive: 4.81% |
| COc1ccccc1/C=C/C(=O)c1ccccc1 | inconclusive: 8.29% |
| CN(C)CCCN(C(=O)CCS(=O)(=O)c1ccccc1)c1nc2cc3c(cc2s1)OCO3 | inconclusive: 9.05% |
| O=C(c1cc2ccccc2o1)N1CCN(Cc2ccc3c(c2)OCO3)CC1 | inconclusive: 8.1% |
| O=C(NCc1ccc(F)cc1)C1CCN(S(=O)(=O)N2CCOCC2)CC1 | inconclusive: 6.54% |
| Cc1ccc2c(c1)C1NC(=S)NC(C)(O2)C1C(=O)Nc1ccc(Cl)cc1 (stereo unspecified) | active: 51.4% |
| Cc1cnc(C(=O)N2CCCC(N3CCN(c4ccccc4C)CC3)C2)cn1 (stereo unspecified) | inactive: -0.498% |
| CN(Cc1ccccc1)C(=O)CC(=O)N(C)Cc1ccccc1 | inconclusive: 5.31% |
| Cc1[nH]n(-c2ccccc2)c(=O)c1N=Nc1ccc2c(c1)OCCO2 | inconclusive: 8.14% |
| CSc1sc(C(=O)N2CCCCC2)c(-c2cccs2)c1C#N | inconclusive: 7.48% |
| COc1cccc(/C=C2\SC(=S)N(C(C)C(=O)NC3C=CS(=O)(=O)C3)C2=O)c1 (stereo unspecified) | inactive: 0.00155% |
| Cc1cccc(NC(=O)Cc2noc3ccccc23)c1 | inconclusive: 8.66% |

Ordered by molecular weight (low to high): part of the list above

| Compound | activation |
| --- | --- |
| Cc1cccc(NC(=O)Cc2noc3ccccc23)c1 | inconclusive: 8.66% |
| O=C(O)c1ccc(NC(=O)C2C3CCC(C3)C2C(=O)O)cc1 (stereo unspecified) | inactive: 0.134% |
| CN(Cc1ccccc1)C(=O)CC(=O)N(C)Cc1ccccc1 | inconclusive: 5.31% |
| Cc1c(Cl)c([N+](=O)[O-])nn1CC(=O)NC12CC3CC(CC(C3)C1)C2 | inconclusive: 6.23% |
